Results from article PMC10216903, “Implication of the Transmembrane Domain in the Interleukin 10 Receptor Platform Oligomerisation” (Cells, 2023).
Results are given in words; binding and its absence hold for the method and conditions named. In cells and extracts the contact can be indirect. Some results given as binding are weak or reduced against the parent protein; the word gives no strength.

Legend:
[1] = target: T1, IL-10Rα, endogenous in RAW264.7 and BV-2 cells (mouse (endogenous in RAW264.7 and BV-2)) (UniProt Q61727); experiment: proximity ligation; Duo-Link on BV-2 cells, DMSO or peptide 10^-7 M for one hour, fixed 2% PFA, permeabilized; antibodies to IL-10Ra and IL-10Rb; endogenous subunits
T1 sequence: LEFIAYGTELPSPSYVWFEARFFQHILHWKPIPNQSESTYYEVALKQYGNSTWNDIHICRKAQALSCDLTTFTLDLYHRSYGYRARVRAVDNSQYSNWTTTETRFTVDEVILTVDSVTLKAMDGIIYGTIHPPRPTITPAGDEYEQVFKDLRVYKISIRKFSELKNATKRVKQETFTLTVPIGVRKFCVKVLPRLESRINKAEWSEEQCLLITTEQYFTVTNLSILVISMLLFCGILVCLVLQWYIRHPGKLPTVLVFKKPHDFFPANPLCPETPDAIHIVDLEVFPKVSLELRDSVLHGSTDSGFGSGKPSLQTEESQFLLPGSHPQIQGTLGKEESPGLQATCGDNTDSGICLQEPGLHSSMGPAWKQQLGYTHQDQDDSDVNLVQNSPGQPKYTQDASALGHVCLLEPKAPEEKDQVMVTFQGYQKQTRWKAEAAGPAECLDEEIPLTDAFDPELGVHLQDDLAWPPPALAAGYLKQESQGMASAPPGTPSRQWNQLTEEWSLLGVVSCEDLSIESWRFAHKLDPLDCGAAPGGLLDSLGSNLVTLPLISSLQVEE

[2] = target: T1, IL-10Rα, endogenous in RAW264.7 and BV-2 cells (mouse (endogenous in RAW264.7 and BV-2)); experiment: proximity ligation; Duo-Link on RAW264.7 cells, DMSO or peptide 10^-7 M for one hour, fixed 2% PFA, permeabilized; antibodies to IL-10Ra and IL-10Rb; endogenous subunits

B1: IL-10Rβ, full-length subunit of the interleukin 10 receptor (receptor, UniProt Q61190 20-349, looked up)
chain: MIPPPEKVRMNSVNFKNILQWEVPAFPKTNLTFTAQYESYRSFQDHCKRTASTQCDFSHLSKYGDYTVRVRAELADEHSEWVNVTFCPVEDTIIGPPEMQIESLAESLHLRFSAPQIENEPETWTLKNIYDSWAYRVQYWKNGTNEKFQVVSPYDSEVLRNLEPWTTYCIQVQGFLLDQNRTGEWSEPICERTGNDEITPSWIVAIILIVSVLVVFLFLLGCFVVLWLIYKKTKHTFRSGTSLPQHLKEFLGHPHHSTFLLFSFPPPEEAEVFDKLSIISEESEGSKQSPEDNCASEPPSDPGPRELESKDEAPSPPHDDPKLLTSTSEV
notes: Interleukin 10 receptor subunit beta, full length; One tag per copy: Rluc fusion as donor, eYFP fusion as acceptor; also called IL-10Rβ_FL; full-length IL-10Rβ; source: HEK293, transfected, in living cells
Question: Which binding [1] does the source give for B1 here?
Answer: Its binding is “binds”.

Question: And the binding [2]?
Answer: Its binding is “binds”.
